No constants are given. Whether binding was seen depends on the method and setting. In cells and extracts the contact can be indirect. Some binding calls cover weakened binding; strength is not graded here. Tags and fused reporters may be left off the sequences shown.
Biological target: T1, Flag-Shisa7 (mouse) (UniProt Q8C3Q5)
T1 sequence: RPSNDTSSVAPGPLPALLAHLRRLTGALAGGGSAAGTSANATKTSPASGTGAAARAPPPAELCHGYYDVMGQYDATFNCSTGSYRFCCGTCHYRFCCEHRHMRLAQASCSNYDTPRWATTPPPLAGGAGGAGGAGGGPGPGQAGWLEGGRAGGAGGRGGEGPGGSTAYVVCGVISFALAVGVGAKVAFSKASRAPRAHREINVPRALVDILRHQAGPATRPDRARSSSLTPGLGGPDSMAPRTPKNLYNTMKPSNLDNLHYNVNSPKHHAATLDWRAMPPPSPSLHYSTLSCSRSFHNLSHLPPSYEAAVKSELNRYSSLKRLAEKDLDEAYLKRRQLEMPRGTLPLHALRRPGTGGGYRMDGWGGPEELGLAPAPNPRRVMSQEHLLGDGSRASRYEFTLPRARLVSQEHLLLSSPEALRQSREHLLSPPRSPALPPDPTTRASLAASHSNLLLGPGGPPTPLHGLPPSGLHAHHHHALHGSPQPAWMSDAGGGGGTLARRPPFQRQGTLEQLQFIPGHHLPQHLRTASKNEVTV
Experiment: co-IP; Flag-Shisa7 co-expressed with a glutamate receptor subunit in HEK293 cells; lysis in 1% Triton X-100, 150 mM NaCl, 25 mM HEPES pH 7.4; anti-Flag antibody overnight, Protein A/G agarose beads, four washes; immunoblot

The chains behind the UniProt entries cited, without tags or fusion partners. Residues count along the entry.
UniProt P39087, residues 32-908: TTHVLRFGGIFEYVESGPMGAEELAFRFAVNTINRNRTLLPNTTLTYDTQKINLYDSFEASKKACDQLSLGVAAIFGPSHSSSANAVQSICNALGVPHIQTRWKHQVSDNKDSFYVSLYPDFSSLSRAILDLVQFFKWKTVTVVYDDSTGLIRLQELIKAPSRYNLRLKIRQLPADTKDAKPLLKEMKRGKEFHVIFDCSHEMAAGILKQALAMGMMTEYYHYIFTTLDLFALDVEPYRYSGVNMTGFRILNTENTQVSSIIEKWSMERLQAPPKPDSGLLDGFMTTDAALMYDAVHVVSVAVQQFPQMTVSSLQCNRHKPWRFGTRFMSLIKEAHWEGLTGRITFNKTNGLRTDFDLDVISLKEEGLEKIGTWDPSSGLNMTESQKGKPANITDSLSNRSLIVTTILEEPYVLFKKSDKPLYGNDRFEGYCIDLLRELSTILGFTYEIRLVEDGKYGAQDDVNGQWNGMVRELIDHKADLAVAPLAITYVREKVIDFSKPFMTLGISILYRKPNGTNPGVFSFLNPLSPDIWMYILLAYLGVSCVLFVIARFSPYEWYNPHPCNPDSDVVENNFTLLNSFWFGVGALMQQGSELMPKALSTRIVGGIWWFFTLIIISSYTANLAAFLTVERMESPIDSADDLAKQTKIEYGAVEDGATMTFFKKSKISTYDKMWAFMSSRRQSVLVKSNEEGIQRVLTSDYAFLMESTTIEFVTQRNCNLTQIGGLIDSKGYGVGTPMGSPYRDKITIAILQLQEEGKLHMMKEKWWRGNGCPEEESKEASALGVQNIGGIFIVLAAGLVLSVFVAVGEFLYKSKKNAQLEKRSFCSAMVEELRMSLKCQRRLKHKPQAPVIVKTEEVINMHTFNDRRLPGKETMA
UniProt Q9Z2W9, residues 23-888: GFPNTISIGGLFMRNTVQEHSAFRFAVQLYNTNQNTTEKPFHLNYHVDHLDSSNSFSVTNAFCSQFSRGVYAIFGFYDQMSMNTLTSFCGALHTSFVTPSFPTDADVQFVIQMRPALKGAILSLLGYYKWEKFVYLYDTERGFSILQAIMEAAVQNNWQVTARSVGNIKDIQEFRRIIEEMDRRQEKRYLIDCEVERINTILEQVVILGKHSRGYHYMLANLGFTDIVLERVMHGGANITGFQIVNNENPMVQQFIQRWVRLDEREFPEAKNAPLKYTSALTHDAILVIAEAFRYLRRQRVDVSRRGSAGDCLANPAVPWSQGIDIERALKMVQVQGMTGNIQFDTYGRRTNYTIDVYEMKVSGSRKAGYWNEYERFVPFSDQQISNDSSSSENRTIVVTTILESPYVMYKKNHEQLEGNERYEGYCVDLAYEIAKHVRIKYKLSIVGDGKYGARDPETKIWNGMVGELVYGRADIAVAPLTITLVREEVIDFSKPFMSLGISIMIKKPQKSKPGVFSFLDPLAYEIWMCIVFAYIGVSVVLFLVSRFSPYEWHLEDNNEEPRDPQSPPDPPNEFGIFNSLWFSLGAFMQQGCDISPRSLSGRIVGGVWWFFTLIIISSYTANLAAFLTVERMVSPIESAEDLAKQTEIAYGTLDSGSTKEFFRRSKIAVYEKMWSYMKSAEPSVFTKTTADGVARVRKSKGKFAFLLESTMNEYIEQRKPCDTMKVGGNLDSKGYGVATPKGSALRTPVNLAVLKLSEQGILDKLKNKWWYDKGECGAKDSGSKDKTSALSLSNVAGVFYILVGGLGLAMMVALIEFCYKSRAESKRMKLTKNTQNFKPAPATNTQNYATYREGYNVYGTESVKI

Row | binding | Substance
1 | binds weakly | GluK2 (expressed in HEK293 cells) (from UniProt P39087 32-908) (receptor)
2 | binds | GluA3 (homomeric receptor expressed in HEK293 cells) (from UniProt Q9Z2W9 23-888)
